The exact form of at least one protein or probe is not confirmed. Results from cells or extracts need not show a direct contact.

The chains behind the UniProt entries cited, without tags or fusion partners. Residues count along the entry.
UniProt P15307, 2-587: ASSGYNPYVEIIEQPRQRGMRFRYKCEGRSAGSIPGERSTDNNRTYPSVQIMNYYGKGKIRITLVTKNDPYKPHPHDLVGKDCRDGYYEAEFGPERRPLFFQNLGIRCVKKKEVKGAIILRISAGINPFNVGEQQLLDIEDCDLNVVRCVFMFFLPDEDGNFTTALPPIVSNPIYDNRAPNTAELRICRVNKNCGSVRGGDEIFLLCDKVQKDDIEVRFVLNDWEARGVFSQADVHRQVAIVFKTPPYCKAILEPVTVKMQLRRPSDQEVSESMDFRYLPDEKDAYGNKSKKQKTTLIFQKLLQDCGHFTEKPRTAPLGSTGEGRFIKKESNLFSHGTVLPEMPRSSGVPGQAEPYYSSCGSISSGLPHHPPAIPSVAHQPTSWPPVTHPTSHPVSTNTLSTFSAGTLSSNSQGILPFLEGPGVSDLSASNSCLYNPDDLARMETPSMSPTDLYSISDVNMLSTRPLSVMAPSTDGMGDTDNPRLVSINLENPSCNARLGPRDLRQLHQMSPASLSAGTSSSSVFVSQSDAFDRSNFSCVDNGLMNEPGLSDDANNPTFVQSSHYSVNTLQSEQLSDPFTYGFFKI

The target of the data set is c-Rel (UniProt P15307). Briefly: EMSA supershift. The conditions noted are these: nuclear extract of RAW264.7 + 10 ng/mL TNF-a, anti-c-Rel, light supershifted band; 3 ug nuclear protein, 0.25 pmol probe, 10 min at room temperature; 4% polyacrylamide gel, 0.25X TBE; binding buffer, salt and pH not stated; protein in an extract; label: 32P (Klenow fill-in with [a-32P]dCTP).

Turning to “GGGCATGGGAATTTCCAACTC (double strand) [NF-kB consensus oligonucleotide probe]”, the binding result is recorded as “binds”.
